PubChem BioAssay AID1259254 – NCATS, 2017
This is a random part of about 59,000 reagents tested. Of all reagents, about 1,550 (2.6%) are marked active. 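G2 share is only a proxy for re-replication; each gene was hit by three separate siRNAs, and active genes were retested.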 The numbers tell different reagents against one gene apart. Further read-outs or replicates are left out here. Not given: the amount of reagent.

Aim: 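Gene knock-downs that lead to re-replication, shown by excess G2 DNA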 (primary screen)
Cells: human HCT116 colorectal cancer cells
Reagents: single siRNA against human genes
Timing: 3 days
Measured: 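Imaged Hoechst DNA stain sorts each cell into a cycle phase by DNA amount; per plate, G2 fraction set to 0% for non-targeting and 100% for GMNN siRNA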
Direction: G2 robust z-score and G2 cells, % of GMNN control: higher = more G2 cells, more excess DNA replication
Rule for the call: 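An siRNA counts as active if its G2 robust z-score lies at least 5 MADs above the screen median; here such calls match roughly 38% of GMNN control or more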

| gene | siRNA no. | G2 robust z-score | G2 cells, % of GMNN control | outcome |
| --- | --- | --- | --- | --- |
| LAMA2 | 1 | 1.09 | 10.7 | inactive |
| LAMA2 | 2 | -0.53 | -0.764 | inactive |
| LAMA2 | 3 | -0.767 | -2.43 | inactive |
| LINC03033 | 1 | 0.00405 | 3 | inactive |
| LINC03033 | 2 | 2.06 | 17.5 | inactive |
| LINC03033 | 3 | 3.92 | 30.6 | inactive |
| TRIM36 | 1 | 3.97 | 30.9 | inactive |
| TRIM36 | 2 | 1.32 | 12.3 | inactive |
| TRIM36 | 3 | 8.56 | 63.2 | active |
| SPATA12 | 1 | -1.12 | -4.9 | inactive |
| SPATA12 | 2 | 2.28 | 19 | inactive |
| SPATA12 | 3 | 1.9 | 16.3 | inactive |
| CREG2 | 1 | 3.95 | 30.8 | inactive |
| CREG2 | 2 | -0.517 | -0.668 | inactive |
| CREG2 | 3 | -0.502 | -0.568 | inactive |
| NAA38 | 1 | -0.779 | -2.51 | inactive |
| NAA38 | 2 | -0.772 | -2.47 | inactive |
| NAA38 | 3 | -0.867 | -3.13 | inactive |
| SFR1 | 1 | 1.91 | 16.4 | inactive |
| SFR1 | 2 | 0.915 | 9.41 | inactive |
| SFR1 | 3 | -0.493 | -0.503 | inactive |
| SLITRK6 | 1 | 1.79 | 15.6 | inactive |
| SLITRK6 | 2 | -0.364 | 0.408 | inactive |
| SLITRK6 | 3 | 0.707 | 7.94 | inactive |
| SLC17A7 | 1 | 2.27 | 19 | inactive |
| SLC17A7 | 2 | 0.154 | 4.05 | inactive |
| SLC17A7 | 3 | 0.576 | 7.02 | inactive |
| GHDC | 1 | 0.146 | 4 | inactive |
| GHDC | 2 | 0.862 | 9.03 | inactive |
| GHDC | 3 | 0.701 | 7.9 | inactive |
| RSPO1 | 1 | 0.472 | 6.29 | inactive |
| RSPO1 | 2 | 0.907 | 9.35 | inactive |
| RSPO1 | 3 | -0.211 | 1.49 | inactive |
| MPP3 | 1 | -1.26 | -5.9 | inactive |
| MPP3 | 2 | -0.00194 | 2.95 | inactive |
| MPP3 | 3 | -0.352 | 0.493 | inactive |

4 of these entries, reformatted.
{"gene": "SLC17A7", "siRNA no.": 1, "G2 robust z-score": 2.27, "G2 cells, % of GMNN control": 19, "outcome": "inactive"}
{"gene": "SLC17A7", "siRNA no.": 2, "G2 robust z-score": 0.154, "G2 cells, % of GMNN control": 4.05, "outcome": "inactive"}
{"gene": "SLC17A7", "siRNA no.": 3, "G2 robust z-score": 0.576, "G2 cells, % of GMNN control": 7.02, "outcome": "inactive"}
{"gene": "GHDC", "siRNA no.": 1, "G2 robust z-score": 0.146, "G2 cells, % of GMNN control": 4, "outcome": "inactive"}

Additional records follow:
| gene | siRNA no. | G2 robust z-score | G2 cells, % of GMNN control | outcome |
| --- | --- | --- | --- | --- |
| BEND6 | 1 | -0.332 | 0.632 | inactive |
| BEND6 | 2 | -0.113 | 2.18 | inactive |
| BEND6 | 3 | -0.71 | -2.03 | inactive |
| TMTC4 | 1 | 1.52 | 13.6 | inactive |
| TMTC4 | 2 | -1.04 | -4.38 | inactive |
| TMTC4 | 3 | -0.0816 | 2.39 | inactive |
| CCDC136 | 1 | 5.73 | 43.3 | active |
| CCDC136 | 2 | 0.664 | 7.64 | inactive |
| CCDC136 | 3 | -0.0325 | 2.74 | inactive |
| MCM6 | 1 | -0.313 | 0.762 | inactive |
| MCM6 | 2 | -0.829 | -2.86 | inactive |
| MCM6 | 3 | -0.801 | -2.67 | inactive |
| FUT2 | 1 | 1.27 | 11.9 | inactive |
| FUT2 | 2 | 0.762 | 8.33 | inactive |
| FUT2 | 3 | -0.595 | -1.22 | inactive |
| GPR179 | 1 | 2.06 | 17.5 | inactive |
| GPR179 | 2 | 0.352 | 5.44 | inactive |
| GPR179 | 3 | -1.06 | -4.47 | inactive |
| IRAK3 | 1 | 0.0245 | 3.14 | inactive |
| IRAK3 | 2 | 0.0397 | 3.25 | inactive |
| IRAK3 | 3 | -0.669 | -1.74 | inactive |
| SKP1 | 1 | 2.15 | 18.1 | inactive |
| SKP1 | 2 | -0.464 | -0.295 | inactive |
| SKP1 | 3 | -0.665 | -1.71 | inactive |
| ANKRD46 | 1 | 1.99 | 17 | inactive |
| ANKRD46 | 2 | -0.14 | 1.98 | inactive |
| ANKRD46 | 3 | -0.133 | 2.03 | inactive |
| FAT4 | 1 | -1.16 | -5.22 | inactive |
| FAT4 | 2 | -0.509 | -0.615 | inactive |
| FAT4 | 3 | -0.593 | -1.2 | inactive |
| RCC2P7 | 1 | 5.35 | 40.6 | active |
| RCC2P7 | 2 | -0.583 | -1.13 | inactive |
| RCC2P7 | 3 | -0.166 | 1.8 | inactive |
| SPCS1 | 1 | 3.13 | 25 | inactive |
| SPCS1 | 2 | -0.348 | 0.517 | inactive |
| SPCS1 | 3 | 0.386 | 5.69 | inactive |
| GP2 | 1 | 0.344 | 5.38 | inactive |
| GP2 | 2 | -0.56 | -0.972 | inactive |
| GP2 | 3 | 0.55 | 6.83 | inactive |
| ASGR1 | 1 | -0.421 | 0.00612 | inactive |
| ASGR1 | 2 | -1.34 | -6.46 | inactive |
| ASGR1 | 3 | -1.23 | -5.69 | inactive |
| TGIF2LX | 1 | -1.17 | -5.24 | inactive |
| TGIF2LX | 2 | 3.61 | 28.4 | inactive |
| TGIF2LX | 3 | 0.376 | 5.61 | inactive |
| TBC1D3G | 1 | 0.0718 | 3.47 | inactive |
| TBC1D3G | 2 | 0.396 | 5.75 | inactive |
| TBC1D3G | 3 | -1.12 | -4.91 | inactive |
| DHX35 | 1 | 1.77 | 15.4 | inactive |
| DHX35 | 2 | -0.666 | -1.72 | inactive |
| DHX35 | 3 | -0.662 | -1.69 | inactive |
